The supplement of paper PMC8728848
The list shows a part of the results.

Legend:
Experiment in all cases: glycan array binding signal (z-score within array); higher = stronger binding
Settings in all cases: glycan notation: IUPAC condensed, linker removed
[1] = target: Fuc(a1-2)Gal(b1-4)GlcNAc(b1-3)Gal(b1-4)GlcNAc(b1-3)Gal(b1-4)GlcNAc
How it was run: (§1)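 Columns mapping to the same glycan were averaged after glycan names were converted to IUPAC-condensed notation. The data come from 3228 arrays in the Consortium for Functional Glycomics database, limited to those with an available protein sequence. Binding is reported as a within-array Z-score averaged across arrays of one protein sequence and across linkers.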

[2] = target: Fuc(a1-2)Gal(b1-4)GlcNAc(b1-3)GalNAc
How it was run: as §1

[3] = target: Fuc(a1-2)Gal(b1-4)GlcNAc(b1-3)[Fuc(a1-2)Gal(b1-4)GlcNAc(b1-6)]GalNAc
How it was run: as §1

[4] = target: Fuc(a1-2)Gal(b1-4)GlcNAc(b1-3)[Fuc(a1-3)[Gal(b1-4)]GlcNAc(b1-6)]Gal(b1-4)Glc
How it was run: as §1

[5] = target: Fuc(a1-2)Gal(b1-4)GlcNAc(b1-6)GalNAc
How it was run: as §1

[6] = target: Fuc(a1-2)Gal(b1-4)GlcNAc6S
How it was run: as §1

[7] = target: Fuc(a1-2)Gal(b1-4)[Fuc(a1-3)]GlcNAc
How it was run: as §1

[8] = target: Fuc(a1-2)Gal(b1-4)[Fuc(a1-3)]GlcNAc(b1-2)Man(a1-3)[Fuc(a1-2)Gal(b1-4)[Fuc(a1-3)]GlcNAc(b1-2)Man(a1-6)]Man(b1-4)GlcNAc(b1-4)[Fuc(a1-6)]GlcNAc
How it was run: as §1

[9] = target: Fuc(a1-2)Gal(b1-4)[Fuc(a1-3)]GlcNAc(b1-2)[Fuc(a1-2)Gal(b1-4)[Fuc(a1-3)]GlcNAc(b1-4)]Man(a1-3)[Fuc(a1-2)Gal(b1-4)[Fuc(a1-3)]GlcNAc(b1-2)Man(a1-6)]Man(b1-4)GlcNAc(b1-4)GlcNAc
How it was run: as §1

[10] = target: Fuc(a1-2)Gal(b1-4)[Fuc(a1-3)]GlcNAc(b1-3)Gal(b1-4)[Fuc(a1-3)]GlcNAc
How it was run: as §1

[11] = target: Fuc(a1-2)Gal(b1-4)[Fuc(a1-3)]GlcNAc(b1-3)Gal(b1-4)[Fuc(a1-3)]GlcNAc(b1-3)Gal(b1-4)[Fuc(a1-3)]GlcNAc
How it was run: as §1

[12] = target: Fuc(a1-2)Gal(b1-4)[Fuc(a1-3)]GlcNAc(b1-3)GalNAc
How it was run: as §1

[13] = target: Fuc(a1-2)Gal(b1-4)[Fuc(a1-3)]GlcNAc(b1-3)[Neu5Ac(a2-6)Gal(b1-4)GlcNAc(b1-6)]Gal(b1-4)Glc
How it was run: as §1

[14] = target: Fuc(a1-2)Gal3S(b1-4)GlcNAc
How it was run: as §1

[15] = target: Fuc(a1-2)Gal6S(b1-3)GlcNAc
How it was run: as §1

[16] = target: Fuc(a1-2)Gal6S(b1-3)GlcNAc6S
How it was run: as §1

Fuc(a1-2)Gal6S(b1-4)Glc = target: Fuc(a1-2)Gal6S(b1-4)Glc
How it was run: as §1

[17] = target: Fuc(a1-2)Gal6S(b1-4)Glc6S
How it was run: as §1

Fuc(a1-2)[Gal(a1-3)]Gal = target: Fuc(a1-2)[Gal(a1-3)]Gal
How it was run: as §1

[18] = target: Fuc(a1-2)[Gal(a1-3)]Gal(b1-3)GalNAc
How it was run: as §1

[19] = target: Fuc(a1-2)[Gal(a1-3)]Gal(b1-3)GalNAc(b1-3)Gal(a1-4)Gal(b1-4)Glc
How it was run: as §1

[20] = target: Fuc(a1-2)[Gal(a1-3)]Gal(b1-3)GlcNAc
How it was run: as §1

[21] = target: Fuc(a1-2)[Gal(a1-3)]Gal(b1-3)GlcNAc(b1-2)Man(a1-3)[Fuc(a1-2)[Gal(a1-3)]Gal(b1-3)GlcNAc(b1-2)Man(a1-6)]Man(b1-4)GlcNAc(b1-4)GlcNAc
How it was run: as §1

[22] = target: Fuc(a1-2)[Gal(a1-3)]Gal(b1-3)GlcNAc(b1-2)Man(a1-3)[Fuc(a1-2)[Gal(a1-3)]Gal(b1-3)GlcNAc(b1-2)Man(a1-6)]Man(b1-4)GlcNAc(b1-4)[Fuc(a1-6)]GlcNAc
How it was run: as §1

[23] = target: Fuc(a1-2)[Gal(a1-3)]Gal(b1-3)GlcNAc(b1-3)GalNAc
How it was run: as §1

[24] = target: Fuc(a1-2)[Gal(a1-3)]Gal(b1-3)GlcNAc(b1-6)GalNAc
How it was run: as §1

[25] = target: Fuc(a1-2)[Gal(a1-3)]Gal(b1-4)Glc
How it was run: as §1

[26] = target: Fuc(a1-2)[Gal(a1-3)]Gal(b1-4)GlcNAc
How it was run: as §1

[27] = target: Fuc(a1-2)[Gal(a1-3)]Gal(b1-4)GlcNAc(b1-2)Man
How it was run: as §1

[28] = target: Fuc(a1-2)[Gal(a1-3)]Gal(b1-4)GlcNAc(b1-2)Man(a1-3)[Fuc(a1-2)[Gal(a1-3)]Gal(b1-4)GlcNAc(b1-2)Man(a1-6)]Man(b1-4)GlcNAc(b1-4)GlcNAc
How it was run: as §1

[29] = target: Fuc(a1-2)[Gal(a1-3)]Gal(b1-4)GlcNAc(b1-2)Man(a1-3)[Fuc(a1-2)[Gal(a1-3)]Gal(b1-4)GlcNAc(b1-2)Man(a1-6)]Man(b1-4)GlcNAc(b1-4)[Fuc(a1-6)]GlcNAc
How it was run: as §1

[30] = target: Fuc(a1-2)[Gal(a1-3)]Gal(b1-4)GlcNAc(b1-3)GalNAc
How it was run: as §1

[31] = target: Fuc(a1-2)[Gal(a1-3)]Gal(b1-4)GlcNAc(b1-3)[Fuc(a1-2)[Gal(a1-3)]Gal(b1-4)GlcNAc(b1-6)]GalNAc
How it was run: as §1

[32] = target: Fuc(a1-2)[Gal(a1-3)]Gal(b1-4)GlcNAc(b1-6)GalNAc
How it was run: as §1

[33] = target: Fuc(a1-2)[Gal(a1-3)]Gal(b1-4)[Fuc(a1-3)]Glc
How it was run: as §1

[34] = target: Fuc(a1-2)[Gal(a1-3)]Gal(b1-4)[Fuc(a1-3)]GlcNAc
How it was run: as §1

[35] = target: Fuc(a1-2)[Gal(a1-3)]Gal(b1-4)[Fuc(a1-3)]GlcNAc(b1-3)GalNAc
How it was run: as §1

B1: ArathEULS3 TAP (Arabidopsis thaliana) (protein)
chain: IDENLYFQGGSMDEKTTGWRGGHVVEGLAGELEQLRARLEHHPQGQREPGGGGSLEITSLYKKAGFMEHHHQHHRHHQRDDGEDDRQSFGVPPPHVDAPPQPHGLYQSQPHFDPYAPTPQAPAPYRSETQFEPHAPPPYRSEPYFETPAPPPSFGHVSHVGHQSPNESYPPEHHRYGGYQQPSNSLLESHGDHSGVTHVAHHSSNQPQSSSGVYHKPDENRLPDNLAGLAGRATVKVYSKAEPNYNLTIRDGKVILAPADPSDEAQHWYKDEKYSTKVKDADGHPCFALVNKATGEAMKHSVGATHPVHLIRYVPDKLDESVLWTESKDFGDGYRTIRMVNNTRLNVDAYHGDSKSGGVRDGTTIVLWDWNKGDNQLWKIFPF
glycan array binding signal (z-score) [1]: -1.55
glycan array binding signal (z-score) [2]: -0.457
glycan array binding signal (z-score) [3]: 0.565
glycan array binding signal (z-score) [4]: -0.196
glycan array binding signal (z-score) [5]: -0.606
glycan array binding signal (z-score) [6]: -1.76
glycan array binding signal (z-score) [7]: -0.553
glycan array binding signal (z-score) [8]: 1.46
glycan array binding signal (z-score) [9]: 0.621
glycan array binding signal (z-score) [10]: 0.109
glycan array binding signal (z-score) [11]: 0.508
glycan array binding signal (z-score) [12]: -0.688
glycan array binding signal (z-score) [13]: -0.644
glycan array binding signal (z-score) [14]: 0.007
glycan array binding signal (z-score) [15]: -1.19
glycan array binding signal (z-score) [16]: -0.204
glycan array binding signal (z-score) (Fuc(a1-2)Gal6S(b1-4)Glc): 1.85
glycan array binding signal (z-score) [17]: -1.52
glycan array binding signal (z-score) (Fuc(a1-2)[Gal(a1-3)]Gal): 0.114
glycan array binding signal (z-score) [18]: 1.06
glycan array binding signal (z-score) [19]: -0.79
glycan array binding signal (z-score) [20]: -0.538
glycan array binding signal (z-score) [21]: -0.697
glycan array binding signal (z-score) [22]: -1.04
glycan array binding signal (z-score) [23]: -0.908
glycan array binding signal (z-score) [24]: -1.55
glycan array binding signal (z-score) [25]: 1.34
glycan array binding signal (z-score) [26]: 0.444
glycan array binding signal (z-score) [27]: 0.868
glycan array binding signal (z-score) [28]: -0.837
glycan array binding signal (z-score) [29]: -0.942
glycan array binding signal (z-score) [30]: -0.333
glycan array binding signal (z-score) [31]: 0.214
glycan array binding signal (z-score) [32]: -0.817
glycan array binding signal (z-score) [33]: -0.729
glycan array binding signal (z-score) [34]: 1.04
glycan array binding signal (z-score) [35]: 1.51
